{"source": "patent US8592466B2", "about": "“Methods for treating conditions caused by higher-than-normal dopaminergic activity in basal ganglia” (Neuropill, Inc., priority 2008, dated 2013)", "tested_on": "DA release in striatum", "assay": "[11C]-raclopride PET binding potential", "assay_type": "in vivo, humans", "description": "The Positron Emission Tomography (PET) scans were performed at the PET Center of Johns Hopkins University at Johns Hopkins Hospital, Baltimore, Md. During the PET scans three plasma samples of RPR 102681 were obtained from each subject under different dosing to measure RPR 102681 plasma concentration.\nEach subject was also studied using Magnetic Resonance Imaging (MRI). Each subject received an individual thermoplastic mask molded to their face to allow for repositioning and stabilizing of the head during the MRI procedure and PET scan later. Marks, which localized the anatomical structures of interest, were placed on the mask following the MRI scan. […]\n[^11C]-raclopride PET scans were preformed on days 6, 13, 20 and 27. […] To measure the specific binding of tracer, binding potential (BP) images were generated by a simplified reference model with a linear regression algorithm (Using a reference tissue model with spatial constraint to quantify [^11C] Pittsburgh compound B PET for early diagnosis of Alzheimer's disease, Yun Zhou, Susan M. Resnick, Weiguo Ye, Hong Fan, Daniel P. Holt, William E. Klunk, Chester A. Mathis, Robert Dannals, and Dean F. Wonga, NeuroImage 36 (2007) 298-312). […]", "data": [{"smiles": "CC(C(=O)O)c1cccc(NC(=O)NCC(=O)N2C(C(=O)OC(C)(C)C)CSC2c2ccccc2F)c1", "note": "[RPR 102681, (2S)-2-{3-[3-({[(2R,4R)-4-tert-Butoxycarbonyl-2-(2-fluorophenyl)]-3-thiazolidinyl}carbonylmethyl)ureido]phenyl}propionic acid]", "values": [{"measurement": "% BP change vs RPR 102681 plasma concentration", "setting": "Dosing Schedule A", "value": "no significant relationship"}, {"measurement": "% BP change vs RPR 102681 plasma concentration", "setting": "Dosing Schedule B", "value": "no significant correlation"}]}]}
